The results in this text go back to PubChem BioAssay AID2685 (National Center for Advancing Translational Sciences (NCATS), 2010).

The nature of the test: qHTS Assay for Lipid Storage Modulators in Drosophila S3 Cells.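 On cell number change: cells counted by Cell Tracker Red CMTPX staining in the red channel.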 The conditions noted are these: BODIPY lipid droplet fluorescence, 18-24 h; for cell number change: measured here: cell count max response, cells fed with added oleic acid. In outline: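 Laser-scanning cytometry quantifies lipid droplet accumulation (500–530 nm total intensity; droplet/cell object ratio) in oleic acid-fed (400 uM added) Drosophila S3 cells treated with a concentration series. 20 uM Triacsin C defined 100% inhibition.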
In general terms: qHTS replaces the single test concentration by a dilution series.

[1] abbreviates: measured here: lipid fluorescence (Fed channel) AC50, cells fed with added oleic acid.
Setting [2] is: measured here: cell number channel AC50, cells fed with added oleic acid.

This is one part of the list. The main result of the screen is listed elsewhere. These columns were measured beside it and carry no call. Compounds called inactive in the main read-out are mostly missing here. The note in brackets gives the kind of curve behind each potency; many fits are weak.

Turning to `O=C(COC(=O)c1oc2ccccc2c1CSc1ccc(Cl)cc1)NC1CCCC1`, the cell number change came out at 3.6%. Moreover, the AC50 (usually the concentration giving half of the maximal activity seen) under setting [1] was 11.6 µM [rising, partial curve].

Turning to `CCC(=O)Nc1ccccc1C(=O)C(=O)Nc1ccccc1`, the cell number change is -3.17%. In addition, the AC50 under setting [2] was 4.61 µM [falling, single point]. As to `COc1ccc(Cl)cc1NC(=O)CN(C)C(C)C(=O)NCC1CCCCC1` (stereo not drawn), the cell number change came out at 5.06%. For the compound `CN1C(=O)Cc2cc(S(=O)(=O)N3CCN(c4cccc(C(F)(F)F)c4)CC3)ccc21`, the AC50 under setting [1] was 29.1 µM [falling, single point]. Still for that read-out and setting: under `COc1ccccc1CN1C(=O)CCC1(C)C(=O)NCc1cccnc1` (stereo not drawn) stands 8.2 µM [rising, partial curve, poor fit]. Turning to `COc1ccc(/C=C(\NC(=O)c2ccc(Cl)cc2)C(=O)NCCCn2ccnc2)cc1OC`, the cell number change was determined as 33.3%. Besides, under setting [2], the AC50 was 1.84 µM [rising, partial curve].

Turning to `Cc1[nH]c2ccccc2c1C(=O)CCl`, the cell number change was -51.7%. The half-maximal activity concentration (AC50) under setting [2] is 14.6 µM [falling, single point]. Moreover, the AC50 under setting [1] was 0.0461 µM [falling, full curve, poor fit]. Consider `COc1ccc(N2CCN(C(=O)CC3NC4CCCCC4NC3=O)CC2)cc1` (stereo not drawn), for which the AC50 under setting [2] is 4.11 µM [falling, partial curve]. For `COc1ccc([N+](=O)[O-])cc1NC(=O)Nc1cccc(Cl)c1`, the cell number change was -29.8%. Further, the AC50 under setting [1] is 29.1 µM [falling, single point].

Regarding `CCOC(=O)N1CCN(Cc2ccccc2Cl)CC1`, the cell number change was determined as 1.99%. Under setting [2], the AC50 was 2.06 µM [falling, partial curve, poor fit]. Also, the AC50 under setting [1] is 1.64 µM [falling, partial curve]. Turning to `COc1ccc(S(=O)(=O)N(CC(=O)NCC2CCCO2)Cc2ccccc2)cc1` (stereo not drawn), the cell number change is -10.5%. In addition, under setting [1], the AC50 was 0.447 µM [falling, single point]. As for `CN(c1ccc(C(=O)NCc2ccco2)cc1)S(C)(=O)=O`, the AC50 under setting [2] is 0.58 µM [falling, partial curve, poor fit]. As to `O=C(CSc1ccc2nnc(-c3ccccn3)n2n1)Nc1ccc2c(c1)OCCO2`, the concentration at half-maximal activity (AC50) is 0.092 µM [rising, full curve, poor fit] under setting [2] and 0.103 µM [rising, full curve, poor fit] under setting [1]. Regarding `O=C(c1cc2nc(-c3ccco3)cc(C(F)(F)F)n2n1)N1CCN(c2ccccn2)CC1`, under setting [1], the AC50 was 6.51 µM [rising, single point].

Consider `Cc1nn(Cc2cccc(C(=O)O)c2)c(C)c1[N+](=O)[O-]`, for which the cell number change was determined as 15.6%. The AC50 under setting [2] was 0.184 µM [rising, full curve, poor fit]. Moreover, the AC50 under setting [1] was 0.146 µM [rising, full curve]. On to `O=C(COc1cc2oc(=O)c3c(c2cc1Cl)CCC3)Nc1cccnc1`, for which the cell number change was determined as 68.3%. In addition, the AC50 under setting [2] was 29.1 µM [rising, single point].

As for `COc1ccc(CN(C)C(=O)Cc2ccc(S(=O)(=O)N3CCOCC3)s2)cc1OC`, the cell number change was -4.92%. Further, the half-maximal activity concentration (AC50) under setting [1] was 0.00517 µM [falling, full curve, poor fit].

Take `CCc1ccc(OC)c(S(=O)(=O)Nc2ccc(Cc3ccncc3)cc2)c1`: the cell number change is 21.8%. On to `CCN(CC1COc2ccccc2O1)C(=S)NC1CC2CCC1C2` (stereo not drawn), for which the cell number change came out at 24.6%. Further, under setting [1], the AC50 was 1.58 µM [rising, full curve]. Regarding `CCc1ccc(CN(C)C(=O)c2ccc3c(=O)n4c(nc3c2)CCC4)cc1`, the cell number change is -35.5%. Further, the AC50 under setting [2] is 1.84 µM [falling, full curve]. Under setting [1], the AC50 is 2.06 µM [falling, full curve]. In the case of `Cc1ccc(SCCN2CCC(O)CCC2=O)cc1` (stereo not drawn), the cell number change is 12%. The AC50 under setting [1] was 3.66 µM [rising, full curve]. For `O=C(COC(=O)c1ccc(F)c(S(=O)(=O)N2CCOCC2)c1)c1ccc(Cl)cc1`, the cell number change is -29.4%. In addition, the AC50 under setting [1] is 1.16 µM [falling, full curve].

Consider `O=C(Cc1cn2ccsc2n1)Nc1nc2c(s1)CCCC2`, for which the cell number change was -8.33%.

As for `COC(=O)c1ccc(COc2cccc(C)c2C)cc1`, the cell number change amounted to 8.67%. Further, the concentration at half-maximal activity (AC50) under setting [2] was 0.259 µM [rising, full curve, poor fit]. Under setting [1], the half-maximal activity concentration (AC50) was 0.116 µM [rising, full curve]. In the case of `O=C(Nc1ccc(C(F)(F)F)cc1)C1CCN(c2cnccn2)CC1`, the cell number change amounted to 7.95%. Moreover, the AC50 under setting [1] is 0.00517 µM [rising, full curve, poor fit]. As to `O=C(CCc1ccccc1)NC1CCCc2ccccc21` (stereo not drawn), the cell number change was found to be 14.9%. Besides, under setting [1], the half-maximal activity concentration (AC50) was 6.51 µM [rising, partial curve, poor fit]. `Cc1cc(NC(=O)CSc2nccn2-c2ccc(F)cc2)no1`: the cell number change was 42.2%. Under setting [2], the AC50 is 3.66 µM [rising, partial curve]. Consider `O=C(Nc1ccc2c(c1)C(=O)OC2)Nc1cccc2ccccc12`, for which the AC50 under setting [1] is 29.1 µM [falling, single point]. As to `COc1cc(CN2CCCN(C)CC2)c([N+](=O)[O-])cc1OC`, the cell number change is 13.7%. Turning to `COc1cccc(CNc2ccc(S(=O)(=O)Nc3nccs3)cc2)c1O`, the cell number change is -22%. Under setting [2], the AC50 was 0.00461 µM [falling, full curve, poor fit].

`CCCCn1c(N)c(N(CCC(C)C)C(=O)C2CC(=O)N(Cc3ccc(C)cc3)C2)c(=O)[nH]c1=O` (stereo not drawn): the cell number change is -20.4%. Further, the AC50 under setting [1] was 2.59 µM [falling, full curve, poor fit]. For `Cc1ccc(N/C(N)=N/c2nc(C)cc(N3CCCCC3)n2)c(C)c1`, the cell number change is -70.6%. Further, the AC50 under setting [2] was 4.11 µM [falling, partial curve]. Under setting [1], the AC50 was 7.31 µM [falling, partial curve].

As to `COc1ccc(-c2cc(C(=O)Nc3c(C)n(C)n(-c4ccccc4)c3=O)c3ccccc3n2)c(OC)c1`, the cell number change was 12.5%. Further, the concentration at half-maximal activity (AC50) under setting [2] was 6.51 µM [rising, single point]. Turning to `CCCc1cc(NCC2CCCO2)n2c(nc3ccccc32)c1C#N` (stereo not drawn), the cell number change was determined as 5.69%. Further, the half-maximal activity concentration (AC50) under setting [1] is 18.4 µM [rising, partial curve, poor fit]. As to `COc1ccccc1/C=C/C(=O)OCC(=O)N1CCc2ccccc21`, the cell number change is 2.34%. Besides, under setting [1], the AC50 is 11.6 µM [rising, partial curve]. With `O=C(NC1CC2CCC1C2)C1COc2ccccc2O1` (stereo not drawn), the AC50 under setting [2] is 6.51 µM [rising, single point]. For the compound `O=C(Cc1ccc(Br)cc1)Nc1nc2ccccc2[nH]1`, the cell number change worked out at 8.95%. In addition, under setting [2], the AC50 was 0.82 µM [rising, full curve, poor fit]. Turning to `COc1ccc(-c2csc(Nc3ccc(C)cn3)n2)cc1OC`, the cell number change came to 12.2%. Besides, under setting [1], the AC50 is 4.11 µM [falling, single point]. Turning to `FC(F)C(F)(F)C1=CC(c2cccs2)=NCCN1`, the cell number change amounted to 8.91%. Consider `OC1(c2ccccc2)c2ccccc2-c2ncccc21` (stereo not drawn), for which the cell number change amounted to 40.4%. Moreover, the AC50 under setting [1] is 20.6 µM [rising, single point].

Turning to `Cc1ccccc1[C@@H]1C(C#N)=C(N)S[C@H]1C(=O)c1ccccc1`, the cell number change is 85.7%. The half-maximal activity concentration (AC50) under setting [2] is 1.46 µM [rising, full curve]. Moreover, under setting [1], the AC50 was 4.11 µM [rising, partial curve]. Take `O=C(C1CCN(C2CCN(Cc3ccsc3)CC2)CC1)N1CCOCC1`: the cell number change was 38.4%. Still for that read-out and setting: under `Cc1cccc(-n2c(Cc3ccccc3)nnc2SCc2ccc([N+](=O)[O-])cc2)c1` stands -23%; under `OC(CN1CCCCCC1)CN(c1ccccc1)c1ccccc1` (stereo not drawn), -26.4%. Still for that read-out and setting: under `CC1CCC(Nc2nnnn2-c2ccccc2)CC1` (stereo not drawn) stands -25.3%. For `O=C(COc1ccc(C(=S)N2CCCC2)cc1)Nc1ccccc1C(F)(F)F`, the cell number change is -4.96%. Also, the AC50 under setting [1] is 7.31 µM [falling, partial curve, poor fit]. `CCOc1ccc(/C=C2\SC(=S)N(NS(=O)(=O)c3ccc(C)cc3)C2=O)cc1OC`: the cell number change came out at 13.6%. Consider `COc1ccc(S(=O)(=O)N2CCC(C(=O)NCc3ccco3)CC2)cc1C`, for which the cell number change was 3.95%. The AC50 under setting [2] is 0.731 µM [rising, single point]. Under setting [1], the AC50 was 35.5 µM [falling, single point]. In the case of `COc1ccc(OC)c(-c2csc(NC(=O)CN3C(=O)C4CCCCC4C3=O)n2)c1` (stereo not drawn), the cell number change was determined as 0.643%. The AC50 under setting [1] is 29.1 µM [falling, single point]. Turning to `Clc1ccc(CSc2cc3c(nn2)-c2ccccc2CC3)cc1`, the cell number change was -14.4%. For the same compound, the AC50 under setting [1] was 2.31 µM [falling, partial curve, poor fit]. Consider `Cc1ccc(CN2CCC(n3nccc3NC(=O)C3CCOC3)CC2)cc1` (stereo not drawn), for which the cell number change came to 18.3%. On to `Cc1cc(-c2nsc(=O)o2)c(S(C)(=O)=O)s1`, for which the cell number change was -2.21%. Besides, the AC50 under setting [2] was 1.3 µM [falling, partial curve]. Further, the AC50 under setting [1] is 14.6 µM [falling, partial curve, poor fit].

For the compound `Cc1c(C(=O)N2CCCC2)sc(NC(=O)c2cccs2)c1C#N`, the cell number change is -12.4%. The AC50 under setting [2] is 6.51 µM [falling, single point]. Regarding `COc1cc(NC(=O)c2cc([N+](=O)[O-])ccc2NC(=O)CNCc2ccccn2)cc(OC)c1`, the cell number change was 8.82%. For `COc1ccc2[nH]c(C)c(CCNC(=S)Nc3ccccc3C)c2c1`, the cell number change came to 5.54%. Further, the AC50 under setting [2] is 4.11 µM [rising, single point]. The AC50 under setting [1] is 13 µM [rising, partial curve, poor fit]. Consider `CCCCC1(CC)C(=O)NC(=O)NC1=Nc1ccc(OC)cc1` (stereo not drawn), for which the cell number change was 15.6%. Under setting [1], the AC50 is 0.731 µM [rising, partial curve, poor fit]. As for `CCCn1c(CCc2ccccc2)nnc1SCC(=O)N1CCCC1`, the AC50 runs as follows: under setting [2], 2.91 µM [rising, single point]; under setting [1], 7.31 µM [rising, partial curve]. Turning to `Cc1ccc(NC(=O)Cc2ccsc2)cc1Cl`, the AC50 under setting [1] was 23.1 µM [rising, partial curve]. In the case of `N#CCCn1c(SCC(=O)NCc2ccco2)nc2ccccc21`, the AC50 is, setting by setting: under setting [2], 2.59 µM [rising, partial curve]; under setting [1], 2.59 µM [rising, partial curve, poor fit]. With `CCOC(=O)N1CCN(C(=O)c2ccc3oc(CCCc4ccccc4)nc3c2)CC1`, the cell number change was -44.4%. Under setting [2], the AC50 was 23.1 µM [falling, single point]. Besides, under setting [1], the AC50 is 13 µM [falling, partial curve]. In the case of `Cc1c(NC(=O)c2ccccc2NC(=O)COc2ccccc2)cccc1C(=O)O`, the cell number change is 28.1%. Under setting [1], the AC50 was 29.1 µM [rising, single point].
